Results deposited as PubChem BioAssay AID1259405 (NCATS, 2018).
This is a random part of about 50,000 reagents tested. Over the whole deposit, about 4,000 (8%) were called active. 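Mouse siRNA library applied to hamster cells; one well for each siRNA.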 Entries without a mark were called inactive. Reagents against one gene are numbered here.

Test: 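Knock-downs that lift recombinant protein yield in hamster ovary cells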 (primary screen)
Cells: Chinese hamster CHO-K1 ovary cells with stable secreted eGFP expression
Knock-down reagent: single siRNA against mouse genes, 0.8 pmol siRNA per well (2 µl of 400 nM stock)
Time to read-out: 3 days
Measured: 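Percent of the per-plate non-targeting control median for intracellular GFP per well by laser scanning cytometry and for cell viability by ATP luminescence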
Scale: GFP, % of control: higher = more GFP per well, higher productivity; viability (ATP), % of control: higher = more viable cells (more ATP)
Active means: 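Called active when intracellular GFP, relative to negative control, is at or above 120%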

With knock-down of Nos2 (GeneID 18126) #1 the results were GFP, % of control 75; viability (ATP), % of control 75.5. Nos2 (GeneID 18126) #2 showed GFP, % of control 87.7; viability (ATP), % of control 66.9. Sox21 (GeneID 223227) #1 showed GFP, % of control 72; viability (ATP), % of control 72.7. Against Sox21 (GeneID 223227) #2, the entry reads GFP, % of control 90.1; viability (ATP), % of control 81.8. Against Sox21 (GeneID 223227) #3 the deposit lists GFP, % of control 90.3; viability (ATP), % of control 90.5. Against P2ry10 (GeneID 78826) #1, the values are GFP, % of control 117; viability (ATP), % of control 85.2.

P2ry10 (GeneID 78826) #2 gave GFP, % of control 133 (active); viability (ATP), % of control 81.3. Silencing of P2ry10 (GeneID 78826) #3 gave: GFP, % of control 64.1; viability (ATP), % of control 120. Fbxo34 (GeneID 78938) #1 gave GFP, % of control 53.4; viability (ATP), % of control 59.8. Fbxo34 (GeneID 78938) #2 scored GFP, % of control 67.9; viability (ATP), % of control 94.4. Knock-down of Fbxo34 (GeneID 78938) #3 resulted in: GFP, % of control 87.2; viability (ATP), % of control 58.9. Against Tcf7l1 (GeneID 21415) #1 the deposit lists GFP, % of control 89.1; viability (ATP), % of control 91.2.

Depletion of Tcf7l1 (GeneID 21415) #2 came out at: GFP, % of control 82.9; viability (ATP), % of control 89.9. Krt2 (GeneID 16681) #1 gave GFP, % of control 114; viability (ATP), % of control 115. Against Krt2 (GeneID 16681) #2, the values are GFP, % of control 97.9; viability (ATP), % of control 75.9. S100a14 (GeneID 66166) #1 showed GFP, % of control 116; viability (ATP), % of control 117. With knock-down of S100a14 (GeneID 66166) #2, the record shows GFP, % of control 61.8; viability (ATP), % of control 62.1. Krt23 (GeneID 94179) #1 gave GFP, % of control 89.2; viability (ATP), % of control 78.9.

Knock-down of Krt23 (GeneID 94179) #2 gave: GFP, % of control 70.1; viability (ATP), % of control 55. For Tspan18 (GeneID 241556) #1, the values are GFP, % of control 46.8; viability (ATP), % of control 28.6. Knock-down of Tspan18 (GeneID 241556) #2 resulted in: GFP, % of control 64.4; viability (ATP), % of control 91. Against Tspan18 (GeneID 241556) #3, the values are GFP, % of control 143 (active); viability (ATP), % of control 146. Gm9918 (GeneID 432988) #1 showed GFP, % of control 141 (active); viability (ATP), % of control 89.4. Knock-down of Gm9918 (GeneID 432988) #2 resulted in: GFP, % of control 95.9; viability (ATP), % of control 47.6.

For Gm9918 (GeneID 432988) #3, the entry reads GFP, % of control 74; viability (ATP), % of control 62.1. For S100a9 (GeneID 20202) #1, the values are GFP, % of control 132 (active); viability (ATP), % of control 123. Against S100a9 (GeneID 20202) #2, the entry reads GFP, % of control 87.9; viability (ATP), % of control 73.3.

An excerpt from above, showing only “viability (ATP), % of control”.
P2ry10 (GeneID 78826) #1: 85.2
P2ry10 (GeneID 78826) #2: 81.3 (active)
